Measurements reported in PMC10516997.
These are yes or no findings as the source states them, for the method shown. Binding seen in cells or lysates may run through a third protein. Some results given as binding are weak or reduced against the parent protein; the word gives no strength. Where a sequence is shown, tags or fusion partners need not be part of it.

Protein sequences, listed by entry. Tags and fused reporters are not part of them.
UniProt Q9UKL0: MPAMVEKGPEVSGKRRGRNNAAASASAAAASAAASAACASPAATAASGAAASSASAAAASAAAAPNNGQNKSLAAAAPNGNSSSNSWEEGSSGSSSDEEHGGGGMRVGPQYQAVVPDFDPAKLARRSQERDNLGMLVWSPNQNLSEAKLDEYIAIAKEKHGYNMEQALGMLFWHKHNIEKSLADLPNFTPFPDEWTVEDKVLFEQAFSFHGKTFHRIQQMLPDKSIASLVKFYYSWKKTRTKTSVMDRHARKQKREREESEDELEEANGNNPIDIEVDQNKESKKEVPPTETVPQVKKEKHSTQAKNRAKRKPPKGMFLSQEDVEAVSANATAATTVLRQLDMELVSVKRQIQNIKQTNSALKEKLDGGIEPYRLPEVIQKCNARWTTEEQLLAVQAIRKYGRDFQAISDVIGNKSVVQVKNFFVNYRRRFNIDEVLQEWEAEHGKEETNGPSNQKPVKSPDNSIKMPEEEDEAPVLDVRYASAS

Target: T1, Flag-tagged E2F7 (UniProt Q96AV8)
T1 sequence: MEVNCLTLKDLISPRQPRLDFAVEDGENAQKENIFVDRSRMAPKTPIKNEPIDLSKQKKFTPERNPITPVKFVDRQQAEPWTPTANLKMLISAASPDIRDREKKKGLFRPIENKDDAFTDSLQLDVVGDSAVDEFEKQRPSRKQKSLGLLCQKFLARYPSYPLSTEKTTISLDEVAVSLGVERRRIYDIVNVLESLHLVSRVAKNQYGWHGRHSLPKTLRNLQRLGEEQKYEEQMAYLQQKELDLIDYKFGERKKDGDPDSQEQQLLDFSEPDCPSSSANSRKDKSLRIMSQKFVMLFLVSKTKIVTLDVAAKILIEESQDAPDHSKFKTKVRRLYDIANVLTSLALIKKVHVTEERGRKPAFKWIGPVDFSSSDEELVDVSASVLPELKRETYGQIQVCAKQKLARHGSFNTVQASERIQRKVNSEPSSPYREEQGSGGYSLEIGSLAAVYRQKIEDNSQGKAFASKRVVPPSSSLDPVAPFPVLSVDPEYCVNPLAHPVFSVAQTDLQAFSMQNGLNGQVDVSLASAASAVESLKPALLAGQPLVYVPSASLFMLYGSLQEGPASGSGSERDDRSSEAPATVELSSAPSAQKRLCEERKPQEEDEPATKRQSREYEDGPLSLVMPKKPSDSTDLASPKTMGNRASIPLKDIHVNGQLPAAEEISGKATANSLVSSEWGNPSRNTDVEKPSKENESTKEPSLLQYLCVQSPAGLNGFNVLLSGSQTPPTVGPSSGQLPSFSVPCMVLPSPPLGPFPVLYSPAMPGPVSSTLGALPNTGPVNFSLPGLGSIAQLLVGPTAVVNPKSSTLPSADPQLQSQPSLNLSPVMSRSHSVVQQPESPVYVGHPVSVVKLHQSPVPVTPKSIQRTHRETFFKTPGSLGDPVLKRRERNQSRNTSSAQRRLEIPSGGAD
Assay: co-IP; Flag-tagged bait stably expressed in H209, H69 and H526 cells; endogenous partner detected

endogenous RCOR1 (from UniProt Q9UKL0 1-485)
binding: binds
